Test results: patent US20160061835A1 (BAYLOR COLLEGE OF MEDICINE, published 2016)
Results are given in words; binding and its absence hold for the method and conditions named. Some results given as binding are weak or reduced against the parent protein; the word gives no strength.

Protein sequences, listed by entry. Tags and fused reporters are not part of them. Residues count along the entry.
UniProt Q83884, residues 229-519: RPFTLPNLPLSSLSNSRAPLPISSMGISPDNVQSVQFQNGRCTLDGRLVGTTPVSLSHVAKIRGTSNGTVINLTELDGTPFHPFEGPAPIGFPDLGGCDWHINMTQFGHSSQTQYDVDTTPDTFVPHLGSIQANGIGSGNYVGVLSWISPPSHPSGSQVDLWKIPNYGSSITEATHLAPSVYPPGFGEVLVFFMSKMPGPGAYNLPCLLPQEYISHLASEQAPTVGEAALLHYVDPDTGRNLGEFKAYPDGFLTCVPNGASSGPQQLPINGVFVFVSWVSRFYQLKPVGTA

Biological target: purified NV P-domain (Norwalk virus (genotype GI.1)) (UniProt Q83884)
Assay: phage ELISA on adsorbed purified NV P-domain, HRP-conjugated M13 phage antibody

LPSWYLAYQKII (peptide, not shown: large carriers) [NV-N-R5-1 phage]
binding: binds
